Results on 1 substance are retold here after publication PMC12222027, “In situ structure of a bacterial flagellar motor at subnanometre resolution reveals adaptations for increased torque” (Nature Microbiology, 2025).

No constants are given. Whether binding was seen depends on the method and setting. Binding seen in cells or lysates may run through a third protein. These calls come from enrichment with a bait or labelling near it, and not all partners need be listed. Sequences can lack the tags named with a protein.

The target in this assay is T1, C-terminal FLAG-tagged PflB (C. jejuni 81-176, plasmid pDAR3414) (C. jejuni 81-176).
T1 sequence: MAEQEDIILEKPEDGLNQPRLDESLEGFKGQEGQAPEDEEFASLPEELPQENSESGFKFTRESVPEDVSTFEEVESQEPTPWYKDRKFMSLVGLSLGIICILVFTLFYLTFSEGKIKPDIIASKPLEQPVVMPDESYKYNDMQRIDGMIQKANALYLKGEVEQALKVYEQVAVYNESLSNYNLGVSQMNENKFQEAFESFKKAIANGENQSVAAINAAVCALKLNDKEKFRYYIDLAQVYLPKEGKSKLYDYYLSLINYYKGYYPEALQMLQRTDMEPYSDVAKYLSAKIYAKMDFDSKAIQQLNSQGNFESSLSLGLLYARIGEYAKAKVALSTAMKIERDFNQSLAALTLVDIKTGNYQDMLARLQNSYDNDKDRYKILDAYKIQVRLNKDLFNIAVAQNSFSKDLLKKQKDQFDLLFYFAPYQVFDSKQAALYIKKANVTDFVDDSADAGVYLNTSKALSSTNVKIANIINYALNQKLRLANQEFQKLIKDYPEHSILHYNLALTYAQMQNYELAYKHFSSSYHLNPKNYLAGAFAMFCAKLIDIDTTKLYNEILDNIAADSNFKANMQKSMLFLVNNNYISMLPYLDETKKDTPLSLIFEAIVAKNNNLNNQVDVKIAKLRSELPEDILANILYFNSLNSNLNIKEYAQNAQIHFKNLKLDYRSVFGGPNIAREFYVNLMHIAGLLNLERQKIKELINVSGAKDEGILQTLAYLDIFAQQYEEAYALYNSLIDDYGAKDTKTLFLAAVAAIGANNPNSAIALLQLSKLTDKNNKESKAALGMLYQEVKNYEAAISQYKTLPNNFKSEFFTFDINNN
As to the kind of experiment: affinity purification with mass spectrometry; C. jejuni 81-176 ΔpflA or ΔpflB expressing C-terminal FLAG-tagged PflA or PflB; 0.1% formaldehyde crosslinking; osmotic lysis; α-FLAG M2 affinity resin; LC–MS/MS; FLAG-tag alone as negative control.

As to “FliL (C. jejuni 81-176, endogenous) (from UniProt A0A0H3PIF6)”, the binding entry is on record as “binds”.
